# Paper PMC10047868
# The chains behind the UniProt entries cited, without tags or fusion partners. Residues count along the entry.
# UniProt Q26365: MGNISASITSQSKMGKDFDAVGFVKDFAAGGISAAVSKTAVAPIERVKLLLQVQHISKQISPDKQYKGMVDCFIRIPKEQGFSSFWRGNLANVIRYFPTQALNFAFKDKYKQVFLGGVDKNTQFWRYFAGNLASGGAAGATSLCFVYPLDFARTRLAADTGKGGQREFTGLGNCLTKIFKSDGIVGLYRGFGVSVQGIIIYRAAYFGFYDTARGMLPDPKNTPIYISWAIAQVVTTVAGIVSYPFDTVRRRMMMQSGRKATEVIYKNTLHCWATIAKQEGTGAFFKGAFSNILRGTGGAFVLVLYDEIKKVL
# UniProt P35381, residues 48-552: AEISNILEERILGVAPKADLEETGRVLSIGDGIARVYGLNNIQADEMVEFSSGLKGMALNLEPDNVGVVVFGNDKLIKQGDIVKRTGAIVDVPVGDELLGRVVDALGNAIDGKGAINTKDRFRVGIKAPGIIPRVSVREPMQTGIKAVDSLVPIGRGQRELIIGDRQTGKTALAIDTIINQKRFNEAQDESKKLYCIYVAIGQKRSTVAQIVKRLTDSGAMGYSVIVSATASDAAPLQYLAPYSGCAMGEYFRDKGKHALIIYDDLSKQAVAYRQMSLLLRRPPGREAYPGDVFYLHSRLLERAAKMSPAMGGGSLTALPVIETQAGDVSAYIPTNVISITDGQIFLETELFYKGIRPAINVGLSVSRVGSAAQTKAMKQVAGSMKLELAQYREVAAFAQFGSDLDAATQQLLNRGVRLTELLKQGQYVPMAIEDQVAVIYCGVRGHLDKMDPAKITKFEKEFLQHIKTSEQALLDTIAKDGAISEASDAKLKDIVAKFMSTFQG
# UniProt Q05825, residues 32-505: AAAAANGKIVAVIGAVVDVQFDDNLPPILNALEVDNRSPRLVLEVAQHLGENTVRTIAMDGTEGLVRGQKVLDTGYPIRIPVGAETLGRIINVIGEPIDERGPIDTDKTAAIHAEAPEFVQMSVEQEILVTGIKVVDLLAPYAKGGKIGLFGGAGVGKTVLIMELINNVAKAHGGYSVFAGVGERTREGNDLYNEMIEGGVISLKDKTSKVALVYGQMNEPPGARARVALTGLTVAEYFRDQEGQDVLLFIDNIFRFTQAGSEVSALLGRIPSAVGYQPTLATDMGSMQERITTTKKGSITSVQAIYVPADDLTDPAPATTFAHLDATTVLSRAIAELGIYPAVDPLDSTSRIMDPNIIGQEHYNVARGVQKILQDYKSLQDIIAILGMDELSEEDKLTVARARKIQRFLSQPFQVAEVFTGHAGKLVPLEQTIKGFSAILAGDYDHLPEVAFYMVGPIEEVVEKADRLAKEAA
# No constants are given. Whether binding was seen depends on the method and setting. In cells and extracts the contact can be indirect. Here binding means that the protein was enriched with, or labelled near, the bait; the list need not be complete.
# T1: D. melanogaster globin 1 (Glob1) (D. melanogaster (endogenous in isolated mitochondria)) (UniProt Q9VF15)
# T1 sequence: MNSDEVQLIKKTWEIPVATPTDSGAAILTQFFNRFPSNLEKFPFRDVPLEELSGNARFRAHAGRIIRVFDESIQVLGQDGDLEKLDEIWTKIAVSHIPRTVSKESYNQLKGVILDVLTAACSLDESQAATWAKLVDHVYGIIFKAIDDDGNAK
# Target: T1, D. melanogaster globin 1 (Glob1) (D. melanogaster (endogenous in isolated mitochondria))
# Test: affinity purification with mass spectrometry; co-immunoprecipitation with anti-HbB antibody (ab227552) on Dynabeads Protein G, D. melanogaster mitochondrial fraction, overnight 18 h at 4 °C; MALDI-TOF/MS of the eluate
row,binding,Molecule
1,binds,"ADP/ATP carrier protein, D. melanogaster (from UniProt Q26365 1-312)"
2,binds,"ATP synthase subunit alpha, D. melanogaster (from UniProt P35381 48-552)"
3,binds,"ATP synthase subunit b, D. melanogaster"
4,binds,"ATP synthase subunit beta, D. melanogaster (from UniProt Q05825 32-505)"
5,binds,"ATP synthase subunit gamma, D. melanogaster"
6,binds,"putative ATP synthase subunit f, D. melanogaster (protein, UniProt Q9W141 1-107) MAFGDYPAEYNPKVHGPYDPARFYGKADVPFGQVKLGEIGAWLGRRNKTPNAVAGAVSRAWWRWQHKYVFPKRAGIAPFFQLTVASMTFFYLINYTKLKHHRNYKYH"
7,binds,"ATP synthase subunit d, D. melanogaster (protein, UniProt Q24251 1-178) MAARRIAQSSINWSALAERVPANQKSSFGAFKTKSDIYVRAVLANPECPPQIDWANYKKLVPVAGLVDSFQKQYEALKVPYPQDKVSSQVDAEIKASQSEIDAYKKASEQRIQNYQKEIAHLKSLLPYDQMTMEDYRDAFPDSALDPLNKPTFWPHTPEEQVGYKSKEQLEAEAQGHH"
